Experimental data as given in PubChem BioAssay AID651664 (NMMLSC, 2012).
Fewer than 10 of roughly 1,800 compounds were called active.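 Rule for the calls: active = inhibition of granule release above a set limit; inactive = the rest.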 The list shows a part of the results.

Test: inhibitors of lytic granule exocytosis, flow cytometry, TALL-104 cells, validation set (AID 651664)
Details: TALL-104 LAMP-1 externalization, at 15.2 µM, stronger effect = higher value, stimulated with thapsigargin and PMA

inhibition, inactive:
Cc1ccc(C(=O)NCCCN2CCOCC2)cc1 10.5%
COc1cc(OC)cc(C(=O)Nc2ccccc2C(=O)N2CCCC2)c1 -1.5%
CCOc1cc(C=C(C(=O)OC)C(=O)OC)ccc1OCc1ccc([N+](=O)[O-])cc1 -2.1%
Cc1cc(C)n(-c2nc3c(c(=O)[nH]c(=O)n3C)n2Cc2ccccc2)n1 1.5%
O=C(NCc1ccccc1)C(c1ccccc1)N(Cc1ccc2c(c1)OCO2)C(=O)Cc1cccs1 (stereo not drawn) -1.8%
O=C1/C(=C\c2cccnc2)CCc2ccccc21 -1.8%
Cc1ccc(NC(=O)c2ccccc2O)cc1 -1.6%
Cc1ccc(C(=O)N(c2ccccn2)C(C)c2ccco2)cc1 (stereo not drawn) 2.1%
COC(=O)c1cc(S(=O)(=O)n2nc(C)c(Br)c2C)c(Cl)cc1Cl -1.9%
CC1=NNC(=O)C1C(c1ccc(F)cc1)C(C#N)C#N (stereo not drawn) 0.3%
CCOC(=O)c1sc2nc(CC(=O)OC)nc(NCCN3CCOCC3)c2c1C -2.4%
Cc1cccc(NC(=O)CSc2nccn2C)c1 4.2%
O=C(c1cccc(C(=O)N2CCN(c3ccccc3F)CC2)c1)N1CCN(c2ccccc2F)CC1 4.8%
CC12Cc3ccc4ccccc4c3C=C1C[N+](C)(C)C2 (stereo not drawn) -0.3%
O=C(COC(=O)c1ccccc1NC(=O)c1ccco1)Nc1ccc2c(c1)OCO2 -1.8%
CCOC(=O)c1cnn(-c2nc(CC)nc3sc4c(c23)CCC4)c1N 2.2%
CCOC(=O)c1oc2ccccc2c1CN1CCN(C)CC1 -1.7%
Cc1nc2cc(NCc3nc4ccccc4n3Cc3ccccc3)ccc2n1C -0.2%
Cc1ccc(S(=O)(=O)c2c(COC(=O)c3ccccc3Cl)c(-c3ccccc3)nn2C)cc1 0.4%
N#CC(c1ccc(Cl)nn1)c1ccccc1Cl (stereo not drawn) 3.2%
Cc1[nH]c2ccccc2c1C(=O)CSc1nc2ccccc2c(=O)n1CCCN1CCOCC1 0.5%
C=CCOc1ccc(Br)cc1/C=N/O 9%
CCN(CC)C(=O)COc1ccc(-c2ccccc2)cc1 -1.6%
CC(C)c1ccc(NS(=O)(=O)c2ccc3[nH]cc(C(=O)N4CCC(C(N)=O)CC4)c(=O)c3c2)cc1 -0.7%
O=C(O)C1CC=CCC1C(=O)N1CCCC1 (stereo not drawn) 0.3%
Cc1noc(NS(=O)(=O)c2ccc(NC(=O)Nc3ccc(Cl)c(Cl)c3)cc2)c1C 0%
Cc1ccc2c(CSc3nc4nc(C)cc(C)n4n3)cc(=O)oc2c1 1%
CCCC(=O)n1nc(-c2ccc(Cl)cc2)nc1SC 0.7%
O=C(NCCCN1CCOCC1)C1CC(=O)N(C2CCCCC2)C1 (stereo not drawn) 0.2%
CNc1ncc(C(=O)C(C)(C)C)s1 -1%
CN=C(NC)SC1CC(=O)N(c2ccccc2)C1=O (stereo not drawn) 3.9%
CC(C)(C)N(NC(=O)Nc1ccccc1)C(=O)c1ccccc1Cl 1.5%
COc1ccc(NS(=O)(=O)c2ccc(Oc3ncccn3)cc2)cc1 -2.9%
CN(C)c1ccc(-c2nnc(-c3ccc(S(=O)(=O)C(F)F)cc3)o2)cc1 -2%
CC(=O)N(CCO)Cc1cc2cc(C)cc(C)c2[nH]c1=O -1.6%
O=C(CC1(O)C(=O)N(CCc2ccccc2)c2ccccc21)c1ccco1 (stereo not drawn) 5.6%
Cc1nccn1CC(O)Cn1c2ccccc2c2ccccc21 (stereo not drawn) -3.3%
N=c1sccn1CC(=O)Nc1cccc2ccccc12 -0.5%
CCC(C(=O)NCCN1CCN(C)CC1)n1c(C)c2cnn(-c3ccccc3)c(=O)c2c1C (stereo not drawn) -0.3%
Cc1cc(C)cc(Nc2ccc(C(=O)O)cc2N)c1 -1.6%
CC(C)OC(=O)c1cc(NC(=S)Nc2ccc([N+](=O)[O-])cc2)cc(C(=O)OC(C)C)c1 -2.3%
O=C(NCCc1ccccc1)c1c(O)c2cccc3c2n(c1=O)CC3 -2.7%
Cc1nc(CN2CCN(C(=O)c3ccc(Br)cc3)CC2)cs1 -0.5%
Cn1c(-c2ccc(C=O)s2)nc2ccccc21 -3.3%
Cc1ccc(OCCn2c(NC(=O)c3ccco3)nc3ccccc32)cc1 4.8%
CCCc1ccc(-c2csc(NC(=O)Cc3cccs3)n2)cc1 -2.6%
O=S1(=O)C=C(SCCN2CCCCC2)c2ccccc21 -1.9%
O=C(COc1cccc(Cl)c1)Nc1ccc(N2CCOCC2)cc1 -0.7%
N#Cc1nc(COc2ccc(-c3ccccc3)cc2)oc1NCCCN1CCOCC1 -0.6%
CC(C)(C)n1nc(-c2ccc(Cl)cc2)c2c(N)ncnc21 0.5%
CCOc1cc(/C=N/n2cnnc2)cc(Br)c1O -0.7%
CCOC(=O)c1cc(NC(=O)N2CCCc3ccccc32)c(C)nc1C 8%
CC(=O)C1=C(O)C(=O)N(c2ccc(S(N)(=O)=O)cc2)C1c1ccc([N+](=O)[O-])cc1 (stereo not drawn) 3.6%
Cc1cc(NC(=O)c2c(F)cccc2Cl)n(-c2nc3ccccc3[nH]2)n1 -2.1%
Cc1ccc(Cl)c2c1NC(=O)C2(O)CC(=O)c1ccc(F)cc1 (stereo not drawn) -2.8%
CCN(C(=O)COC(=O)c1cnc(C)cn1)C1CCCCC1 1.4%
COc1cc(N)cc(NC(=O)c2ccncc2)c1 -0.4%
O=C(O)c1ccc(-n2c(-c3cc(-c4ccco4)[nH]n3)n[nH]c2=S)cc1 1.2%
CC1CN(c2oc(Cc3cccc4ccccc34)nc2C#N)CC(C)O1 (stereo not drawn) -2.4%
Cc1ccc(NC(=O)/C(=C\C=C\c2ccccc2)NC(=O)c2ccccc2)cc1 -0.3%
O=[N+]([O-])c1ccc2c(c1)C(N1CCOCC1)/C(=C/COc1ccc(Cl)cc1Cl)O2 (stereo not drawn) 0.9%
Cc1ccc2cc(C#N)c(N3CCN(C)CC3)nc2c1 1.2%
O=C(CCCC(=O)N(CC(=O)NC1CCCCC1)Cc1ccc2c(c1)OCO2)Nc1ccccn1 -2.2%
Cc1cccc(C)c1NC(=O)C1(N(Cc2ccco2)C(=O)c2ccccn2)CCCC1 -1.2%
CCCCn1c(-c2ccncc2)nc2c1c(=O)[nH]c(=O)n2CC(C)C -2.8%
Cc1cccc(C)c1OCC(=O)NNC(=O)c1ccoc1C 2.3%
CC(NC(=O)c1ccco1)C(=O)N1CCc2ccccc2C1 (stereo not drawn) 1.3%
Nc1nnc(SCc2ccc(Cl)cc2)s1 7.1%
CC(C)(C)NC(=O)C1Cc2ccccc2CN1C(=O)Nc1cccc(Cl)c1 (stereo not drawn) 3.6%
O=C(COc1ncnc2ccccc12)c1ccc2c(c1)OCCO2 3.7%
O=C1NC2(NN1c1ccccc1)C1CC3CC(C1)CC2C3 (stereo not drawn) -2.4%
Cc1ccc(C(=O)c2nocc2C(=O)c2cccs2)cc1 -1.8%
COc1ccccc1-c1c(C)oc2c(CN3CCN(CCO)CC3)c(O)ccc2c1=O 0.3%
COc1cccc(C(C(=O)NCc2ccco2)N(Cc2ccco2)C(=O)Cn2nnc3ccccc32)c1 (stereo not drawn) -3.7%
CN(C)/C=N/C(=S)Nc1ccc(F)cc1 1.1%
Cc1ccc(NC(=O)CSC(N)=O)cc1Cl -2.2%
Cc1ccc(S(=O)(=O)Nc2ccc(S(=O)(=O)N3CCCC3)cc2)cc1 -3.4%
O=C(CC1SC(=Nc2ccccc2)N(CCCCO)C1=O)NCc1ccccc1 (stereo not drawn) -4.1%
O=C(N1CCN(Cc2ccccc2)CC1)C12CC3CC(CC(C3)C1)C2 0.3%
Cc1c(C(=O)N2CCCC2)sc(NC(=O)c2ccc(Cl)cc2)c1C#N 2.2%
C=CCN1C(=O)C(O)(CC(=O)c2ccc(N)cc2)c2ccccc21 (stereo not drawn) -0.3%
Cc1ccc2c(CC(=O)O)coc2c1 1.8%
CCOc1ccccc1N1CCN(C(=O)C(Sc2ccccc2)c2ccccc2)CC1 (stereo not drawn) 0.3%
Cc1ccc(-c2csc(NC(=O)Cc3cccs3)n2)cc1C -2.7%
CCCS(=O)(=O)N1CCCC(C(=O)NCCN(Cc2ccccc2)C(C)C)C1 (stereo not drawn) -0.7%
CN1C(=O)C2(C(C#N)=C(N)N(c3ccc(Cl)cc3)C3=C2C(=O)CC(C)(C)C3)c2ccccc21 (stereo not drawn) 3%
CCC(C)NC(=O)N[C@@H](Cc1ccccc1)C(=O)O (stereo partly drawn) -4.3%
Cc1ccc(C(=O)CCNc2cccc(Br)c2)o1 0.9%
CCC(C)NC(=O)Cn1nc([N+](=O)[O-])c(Cl)c1C (stereo not drawn) 2.6%
O=c1c2cnn(-c3ccccc3)c2nc(-c2cccs2)n1-c1ccc(Cl)cc1 -2.5%
C=CCn1c(SCc2nc3ccccc3c(=O)[nH]2)nc2ccccc2c1=O 1.4%
O=C(CSc1nnc(-c2ccncc2)n1Cc1ccco1)N1c2ccccc2Sc2ccc(Cl)cc21 1.7%
COc1cc2c(cc1OC)C(=O)CCS2 -3.4%
Cc1snc(S(=O)(=O)/C(C#N)=N/Nc2cccc(C(F)(F)F)c2)c1C#N 5.6%
CC1(C)OC(=O)C(=NNc2ccc(O)cc2)C(=O)O1 -0.3%
Cc1sc2nc(CN3CCOCC3)nc(N3CCOCC3)c2c1C -1.2%
CCOC(=O)CNC(=O)c1sc2nc(C)cc(C)c2c1N -1.8%
COc1ccc(N2CCN(C(=O)CN(c3ccccc3)S(C)(=O)=O)CC2)cc1 0.6%

Already shown: 2 of the compounds above.
inhibition, inactive:
N#Cc1nc(COc2ccc(-c3ccccc3)cc2)oc1NCCCN1CCOCC1 -0.6%
CC(C)(C)n1nc(-c2ccc(Cl)cc2)c2c(N)ncnc21 0.5%

2 entries drawn at random from the list so far, as already listed:
inhibition, inactive:
CC1=NNC(=O)C1C(c1ccc(F)cc1)C(C#N)C#N (stereo not drawn) 0.3%
CC(=O)C1=C(O)C(=O)N(c2ccc(S(N)(=O)=O)cc2)C1c1ccc([N+](=O)[O-])cc1 (stereo not drawn) 3.6%

Three entries from above, ordered by length of the SMILES, smallest number first:
inhibition, inactive:
CNc1ncc(C(=O)C(C)(C)C)s1 -1%
CN(C)/C=N/C(=S)Nc1ccc(F)cc1 1.1%
N#Cc1nc(COc2ccc(-c3ccccc3)cc2)oc1NCCCN1CCOCC1 -0.6%
